PubChem BioAssay AID686938 | Drosophila RNAi Screening Center – 2013
In all, the deposit lists about 23,000 reagents; this is a random part of those with a known target gene and a result. In the full data, 75 (0.33%) were called active. 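Raw plate signals without normalisation; calls rest on plate z-scores that were not deposited; ratio present for only 364 wells.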 No sequences are given here. Not stated in the record: the dose of the treatment.

Screen: 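Fly genes required for calcium entry once internal stores are emptied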 (primary screen)
Cell system: Drosophila S2R+ cells
Knock-down reagent: long dsRNA against Drosophila genes, about 0.25 µg dsRNA per well, roughly 10,000 cells
Duration: 5 days of knock-down before the calcium assay
Challenge: thapsigargin (SERCA pump blocker) to empty calcium stores; entry signal taken 4 min after adding it
Measurement: 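Per-well fluo-4 fluorescence in two replicates, unnormalised, measured in resting cells and 4 min after store depletion by the SERCA blocker thapsigargin; ratio of the two present in few wells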
Reading the numbers: calcium entry signal: higher = stronger calcium signal after store depletion; entry to resting ratio: higher = more calcium entry relative to resting level; resting calcium signal: higher = higher resting calcium signal
Units: calcium entry signal in fluorescence units; resting calcium signal in fluorescence units
Rule for the call: 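Called when the plate z-score of the entry-to-rest ratio, mean of duplicates, falls below −3; wells with low overall dye signal (Fmax z below −2) or more than five off-targets excluded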
Meaning of the calls: active = strongly reduced calcium entry; inactive = no strong reduction

Rtca (RNA 3'-terminal phosphate cyclase) [DRSC18517]: calcium entry signal, replicate 1 = 3.58e7; calcium entry signal, replicate 2 = 3.50e7; resting calcium signal, replicate 1 = 1.68e7; resting calcium signal, replicate 2 = 1.75e7; call = inactive
hiro (highroad) [DRSC08564]: calcium entry signal, replicate 1 = 4.31e7; calcium entry signal, replicate 2 = 3.84e7; resting calcium signal, replicate 1 = 2.09e7; resting calcium signal, replicate 2 = 1.86e7; call = inactive
CG11902 [DRSC14434]: calcium entry signal, replicate 1 = 2.74e7; calcium entry signal, replicate 2 = 3.08e7; resting calcium signal, replicate 1 = 1.54e7; resting calcium signal, replicate 2 = 1.58e7; call = inactive
ppk19 (pickpocket 19) [DRSC15321]: calcium entry signal, replicate 1 = 3.61e7; calcium entry signal, replicate 2 = 3.88e7; resting calcium signal, replicate 1 = 1.87e7; resting calcium signal, replicate 2 = 1.72e7; call = inactive
CG12213 [DRSC14478]: calcium entry signal, replicate 1 = 2.82e7; calcium entry signal, replicate 2 = 5.72e7; resting calcium signal, replicate 1 = 1.29e7; resting calcium signal, replicate 2 = 3.02e7; call = inactive
CG12213 [DRSC22109]: calcium entry signal, replicate 1 = 3.83e7; calcium entry signal, replicate 2 = 5.72e7; resting calcium signal, replicate 1 = 1.80e7; resting calcium signal, replicate 2 = 3.06e7; call = inactive
CG34284 [DRSC14773]: calcium entry signal, replicate 1 = 1.46e7; calcium entry signal, replicate 2 = 3.52e7; resting calcium signal, replicate 1 = 3.46e7; resting calcium signal, replicate 2 = 1.38e7; call = inactive
CG14088 [DRSC10092]: calcium entry signal, replicate 1 = 2.83e7; calcium entry signal, replicate 2 = 5.05e7; resting calcium signal, replicate 1 = 1.32e7; resting calcium signal, replicate 2 = 1.99e7; call = inactive

Continued, starting with the last 2 of the part before.
CG34284 [DRSC14773]: calcium entry signal, replicate 1 = 1.46e7; calcium entry signal, replicate 2 = 3.52e7; resting calcium signal, replicate 1 = 3.46e7; resting calcium signal, replicate 2 = 1.38e7; call = inactive
CG14088 [DRSC10092]: calcium entry signal, replicate 1 = 2.83e7; calcium entry signal, replicate 2 = 5.05e7; resting calcium signal, replicate 1 = 1.32e7; resting calcium signal, replicate 2 = 1.99e7; call = inactive
Srlp (Spliceosome-ribosome linker protein) [DRSC15890]: calcium entry signal, replicate 1 = 2.64e7; calcium entry signal, replicate 2 = 2.63e7; resting calcium signal, replicate 1 = 1.71e7; resting calcium signal, replicate 2 = 1.74e7; call = inactive
eIF3e (eukaryotic translation initiation factor 3 subunit e) [DRSC11199]: calcium entry signal, replicate 1 = 2.11e7; calcium entry signal, replicate 2 = 3.30e7; resting calcium signal, replicate 1 = 1.54e7; resting calcium signal, replicate 2 = 2.20e7; call = inactive
CG31161 [DRSC16144]: calcium entry signal, replicate 1 = 4.35e7; calcium entry signal, replicate 2 = 5.79e7; resting calcium signal, replicate 1 = 1.95e7; resting calcium signal, replicate 2 = 2.27e7; call = inactive
CG11550 [DRSC14326]: calcium entry signal, replicate 1 = 3.26e7; calcium entry signal, replicate 2 = 4.80e7; entry to resting ratio = 1.9; resting calcium signal, replicate 1 = 1.71e7; resting calcium signal, replicate 2 = 1.92e7; call = inactive
coil (coilin) [DRSC07242]: calcium entry signal, replicate 1 = 4.07e7; calcium entry signal, replicate 2 = 3.41e7; resting calcium signal, replicate 1 = 1.87e7; resting calcium signal, replicate 2 = 1.64e7; call = inactive
rod (rough deal) [DRSC17047]: calcium entry signal, replicate 1 = 2.00e7; calcium entry signal, replicate 2 = 3.02e7; entry to resting ratio = 1.9; resting calcium signal, replicate 1 = 1.05e7; resting calcium signal, replicate 2 = 1.36e7; call = inactive
Rgk2 (Rad, Gem/Kir family member 2) [DRSC06503]: calcium entry signal, replicate 1 = 5.66e7; calcium entry signal, replicate 2 = 6.89e7; resting calcium signal, replicate 1 = 2.40e7; resting calcium signal, replicate 2 = 2.98e7; call = inactive
Rgk2 (Rad, Gem/Kir family member 2) [DRSC21651]: calcium entry signal, replicate 1 = 3.89e7; calcium entry signal, replicate 2 = 3.93e7; resting calcium signal, replicate 1 = 2.13e7; resting calcium signal, replicate 2 = 1.80e7; call = inactive
CG32099 [DRSC21352]: calcium entry signal, replicate 1 = 3.07e7; calcium entry signal, replicate 2 = 3.26e7; resting calcium signal, replicate 1 = 1.70e7; resting calcium signal, replicate 2 = 1.57e7; call = inactive
Snap25 (Synaptosomal-associated protein 25kDa) [DRSC21228]: calcium entry signal, replicate 1 = 4.24e7; calcium entry signal, replicate 2 = 4.60e7; resting calcium signal, replicate 1 = 2.13e7; resting calcium signal, replicate 2 = 2.08e7; call = inactive
Snap25 (Synaptosomal-associated protein 25kDa) [DRSC21236]: calcium entry signal, replicate 1 = 8.15e7; calcium entry signal, replicate 2 = 4.61e7; resting calcium signal, replicate 1 = 2.97e7; resting calcium signal, replicate 2 = 2.18e7; call = inactive
CG42583 [DRSC22937]: calcium entry signal, replicate 1 = 4.60e7; calcium entry signal, replicate 2 = 4.24e7; resting calcium signal, replicate 1 = 2.43e7; resting calcium signal, replicate 2 = 1.85e7; call = inactive
Hayan [DRSC19989]: calcium entry signal, replicate 1 = 4.61e7; calcium entry signal, replicate 2 = 4.14e7; resting calcium signal, replicate 1 = 2.20e7; resting calcium signal, replicate 2 = 1.79e7; call = inactive
Hayan [DRSC22231]: calcium entry signal, replicate 1 = 4.07e7; calcium entry signal, replicate 2 = 7.03e7; resting calcium signal, replicate 1 = 1.91e7; resting calcium signal, replicate 2 = 3.03e7; call = inactive
